{"source": "paper PMC11599752", "biological_target": "T1, SFPQ (human (endogenous in TREx-BCBL1-RTA)) (UniProt P23246)", "T1 sequence": "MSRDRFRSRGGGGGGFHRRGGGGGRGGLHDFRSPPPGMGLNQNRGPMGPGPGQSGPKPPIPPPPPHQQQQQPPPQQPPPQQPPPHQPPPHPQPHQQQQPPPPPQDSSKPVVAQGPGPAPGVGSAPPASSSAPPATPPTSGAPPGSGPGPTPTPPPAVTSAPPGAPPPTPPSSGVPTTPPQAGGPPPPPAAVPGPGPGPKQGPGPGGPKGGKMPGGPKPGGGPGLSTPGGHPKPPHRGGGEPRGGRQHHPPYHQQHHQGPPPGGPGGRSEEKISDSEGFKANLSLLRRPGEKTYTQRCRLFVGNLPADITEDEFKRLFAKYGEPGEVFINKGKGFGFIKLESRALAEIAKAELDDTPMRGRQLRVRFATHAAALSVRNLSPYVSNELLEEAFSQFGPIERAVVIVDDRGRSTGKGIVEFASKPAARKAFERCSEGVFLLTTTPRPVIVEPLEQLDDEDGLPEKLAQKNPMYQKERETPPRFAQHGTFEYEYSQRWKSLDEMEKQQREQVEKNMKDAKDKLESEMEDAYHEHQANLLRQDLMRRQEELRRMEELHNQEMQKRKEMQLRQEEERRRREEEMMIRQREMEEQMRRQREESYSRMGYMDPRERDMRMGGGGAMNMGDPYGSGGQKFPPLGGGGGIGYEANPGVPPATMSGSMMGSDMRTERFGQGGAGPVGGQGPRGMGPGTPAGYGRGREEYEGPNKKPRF", "experiment": "co-IP", "note": "These are yes or no findings as the source states them, for the method shown. Binding seen in cells or lysates may run through a third protein. A result given as binding can be weak or reduced; the word gives no strength."}
{"substance": "FLAG-ORF11", "values": [{"measurement": "binding", "value": "binds"}]}
